The values below come from PubChem BioAssay (NCATS).

The nature of assay [1]: qHTS Assay for Modulators of Human Peripheral Myelin Protein 22 (PMP22) Expression/Activity (AID 1967). The settings on record: Cell-based PMP22 reporter, dual-color luciferase ratio. The method in brief:
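MSC80 mouse Schwann cells stably carrying Pmp22 promoter–green click beetle luciferase plus EF-alpha–red luciferase control were dosed for 24h at 37 °C. Dual-colour luminescence was filter-overlap corrected; %Activity came from green/red ratio versus untreated cells.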

The nature of assay [2]: qHTS Validation Assay to Find Inhibitors of Chronic Active B-Cell Receptor Signaling (AID 485345). The settings on record: ABC-DLBCL cells, chronic BCR signaling reporter. In a few lines:
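Read-out: ratio of filter-corrected green (IkappaBalpha fusion) to red (native) luciferase signal in doxycycline-induced TMD8 cells after 4 h at 37C. Titration spanned 46 uM–3 nM; Data were normalised to basal cells and 10 uM MG-132 wells.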

Setting [3] is: measured here: red reporter channel AC50, EF-alpha promoter control reporter in MSC80 mouse Schwann cells.
[4] abbreviates: measured here: CBG/CBR ratio read-out.
Setting [5] is: measured here: CBR control luciferase (viability counter).
Where [6] appears, read: measured here: green reporter channel AC50, mouse Pmp22 promoter in mouse Schwann cells.

This is one part of the list. Shown are side measurements of this screen, not its main read-out; they come without a call. Most of these compounds were active or inconclusive in the main read-out, so they are no random draw. The note in brackets gives the kind of curve behind each potency; many fits are weak.

For the compound `CN1CCc2cc(NC(=O)Nc3cccnc3)ccc21`, the AC50 in assay [1] (setting [3]) was 33.8 µM [falling, partial curve]; in assay [2] (setting [4]), 13 µM [falling, partial curve]; in assay [2] (setting [5]), 32.6 µM [falling, single point].

As for `O=C(O)C1=CCCN(CCON=C(c2ccccc2)c2ccccc2)C1`, the AC50 in assay [1] (setting [3]) is 3.79 µM [rising, full curve]; in assay [2] (setting [5]) it was 18.4 µM [falling, single point].

Consider `Cn1c(=O)c2c(nc(/C=C/c3cccc(Cl)c3)n2C)n(C)c1=O`, for which the AC50 in assay [1] (setting [6]) is 84.9 µM [falling, single point]; in assay [1] (setting [3]) it was 95.3 µM [falling, single point]; in assay [2] (setting [5]), 0.651 µM [falling, full curve].

On to `CCCn1cnc2c1c(=O)n(CCCCC(C)=O)c(=O)n2C`, for which the AC50 was 84.9 µM [falling, single point] in assay [1] (setting [3]) and 4.11 µM [rising, full curve, poor fit] in assay [2] (setting [5]).

In the case of `COCCOC(=O)C1=C(C)NC(C)=C(C(=O)OC(C)C)C1c1cccc([N+](=O)[O-])c1` (centres undefined), the AC50 in assay [1] (setting [6]) is 84.9 µM [falling, partial curve]; in assay [1] (setting [3]) it was 75.7 µM [falling, partial curve, poor fit].

On to `O=C1NC(O)=NC1(c1ccccc1)c1ccccc1`, for which the AC50 in assay [1] (setting [6]) was 95.3 µM [falling, single point]; in assay [1] (setting [3]), 95.3 µM [falling, single point].

Regarding `O=c1cc(-c2ccccc2)[nH]c2nc(Cl)ccc12`, the AC50 in assay [1] (setting [6]) was 37.9 µM [falling, partial curve]; in assay [1] (setting [3]), 1.9 µM [falling, full curve].

On to `O=C(/C=C/c1ccc(O)c(O)c1)OCCc1ccccc1`, for which the AC50 was 37.9 µM [falling, partial curve, poor fit] in assay [1] (setting [3]); 14.6 µM [falling, partial curve] in assay [2] (setting [4]); 8.2 µM [falling, partial curve] in assay [2] (setting [5]).
